The results in this text go back to the supplement of paper PMC11006884.

Most of the targets with a hit are listed elsewhere, so they are rarer here than in the full data. This is a noisy data set. The list shows a part of the results, in another mix than the full data.

Compound in this experiment: COC(=O)/C=C/c1ccccc1 [methyl cinnamate]
Description: log2 ratio of iodoacetamide-alkyne labeling of the cysteine site, DMSO over compound (competition); higher = stronger covalent engagement of the cysteine by the compound, active = 1 or more. The conditions noted are these: 500 µM; treatment time 1 h; system: HEK293T cell lysate. In short, it runs like this:
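Reporter intensities give each cysteine's log2 competition ratio as the mean of control channels over the mean of compound channels. The samples were HEK293T lysate (2 mg/mL) given vehicle or electrophile (500 µM, 1 h, ambient temperature), then iodoacetamide alkyne (1 h), followed by click coupling to sCIP-TMT reagents, pooling, trypsin digestion overnight at 37 °C, streptavidin enrichment, acid elution, Orbitrap Eclipse LC-MS/MS with FAIMS and FragPipe quantification. Duplicate channels and three replicates were run, and cysteines quantified in only one replicate were discarded.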
For UniProt P78527_C1507, the “log2 ratio of iodoacetamide-alkyne labeling” value (“log2 ratio” for short) was inactive: 0.308.

Regarding UniProt P84077_C159, the “log2 ratio” value was inactive: 0.0402.

With UniProt P78527_C4061, the “log2 ratio” value was inactive: 0.141.

With KIF23 C933 (UniProt Q02241), the “log2 ratio” value is inactive: 0.112.

For PPIA C62 (UniProt P62937), the “log2 ratio” value is inactive: 0.112.

Regarding EWSR1 C524 (UniProt Q01844), the “log2 ratio” value was inactive: 0.0458.

For PFKP C179 (UniProt Q01813), the “log2 ratio” value is inactive: -0.105.

UniProt P62316_C46: the “log2 ratio” value was inactive: 0.28.

For RPL10A C74 (UniProt P62906), the “log2 ratio” value is inactive: 0.0472.

Take PLCB3 C892 (UniProt Q01970): the “log2 ratio” value was inactive: 0.779.

For UniProt P62258_C98, the “log2 ratio” value is inactive: 0.152.

SPTBN1 C1900 (UniProt Q01082): the “log2 ratio” value is inactive: -0.145.

For the target XPC C60 (UniProt Q01831), the “log2 ratio” value is inactive: 0.242.

Regarding RPS27A C144 (UniProt P62979), the “log2 ratio” value is inactive: 0.128.

As for RPL18A C109 (UniProt Q02543), the “log2 ratio” value is inactive: -0.0677.

Take UniProt Q00341_C683: the “log2 ratio” value is inactive: 0.241.

As for ATP2C1 C162 (UniProt P98194), the “log2 ratio” value was inactive: 0.0601.

On to EEF1A1 C31 (UniProt P68104), for which the “log2 ratio” value was inactive: 0.259.

On to GSTO1 C32 (UniProt P78417), for which the “log2 ratio” value is inactive: 0.209.

Consider MRPS34 C93 (UniProt P82930), for which the “log2 ratio” value is inactive: 0.293.

Regarding KIF23 C42 (UniProt Q02241), the “log2 ratio” value is inactive: -0.0193.

As for UniProt P62987_C91, the “log2 ratio” value is inactive: 0.241.

As for CNBP C158 (UniProt P62633), the “log2 ratio” value is inactive: 0.0627.

For UniProt P68363_C316, the “log2 ratio” value is inactive: 0.0878.

Turning to UniProt P62312_C36, the “log2 ratio” value was inactive: 0.0237.

As for CNBP C171 (UniProt P62633), the “log2 ratio” value was inactive: -0.00835.

TPM4 C154 (UniProt P67936): the “log2 ratio” value is inactive: 0.469.

With UniProt P68431_C97, the “log2 ratio” value is inactive: -0.000769.

Consider CLTC C459 (UniProt Q00610), for which the “log2 ratio” value is inactive: 0.188.

In the case of UniProt P62917_C115, the “log2 ratio” value was inactive: -0.0953.

As to PPP2CA C269 (UniProt P67775), the “log2 ratio” value is inactive: 0.205.

Take UniProt P62753_C100: the “log2 ratio” value was inactive: 0.143.

Consider LSM11 C52 (UniProt P83369), for which the “log2 ratio” value is inactive: 0.259.

UniProt P62873_C317: the “log2 ratio” value is inactive: 0.035.

For the target UniProt P62316_C63, the “log2 ratio” value was inactive: 0.218.

For the target KIF23 C791 (UniProt Q02241), the “log2 ratio” value was inactive: 0.304.

In the case of UniProt P62280_C60, the “log2 ratio” value was inactive: 0.387.
